From publication doi:10.1101/2021.12.01.470696
Results are given in words; binding and its absence hold for the method and conditions named. Binding seen in cells or lysates may run through a third protein. Some results given as binding are weak or reduced against the parent protein; the word gives no strength. For part of these data: Tags and fused reporters may be left off the sequences shown.

Amino acid sequences for entries named in this document (tags omitted). A change or cut given only in a name is not applied to a line headed by its entry.
UniProt Q7Z434: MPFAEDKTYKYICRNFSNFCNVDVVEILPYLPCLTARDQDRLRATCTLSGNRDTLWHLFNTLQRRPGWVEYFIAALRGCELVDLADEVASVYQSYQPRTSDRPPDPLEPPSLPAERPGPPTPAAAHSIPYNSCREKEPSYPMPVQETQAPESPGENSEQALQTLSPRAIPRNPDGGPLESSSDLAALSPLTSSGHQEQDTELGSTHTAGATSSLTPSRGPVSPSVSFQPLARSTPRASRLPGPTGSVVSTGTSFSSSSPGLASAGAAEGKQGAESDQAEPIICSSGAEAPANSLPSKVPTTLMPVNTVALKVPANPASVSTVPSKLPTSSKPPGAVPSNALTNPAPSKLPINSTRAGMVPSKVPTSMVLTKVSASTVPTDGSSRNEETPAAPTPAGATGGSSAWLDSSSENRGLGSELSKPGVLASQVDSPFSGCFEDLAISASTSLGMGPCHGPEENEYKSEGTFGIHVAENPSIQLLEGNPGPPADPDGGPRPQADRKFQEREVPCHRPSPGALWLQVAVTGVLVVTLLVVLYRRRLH
UniProt Q86WV6: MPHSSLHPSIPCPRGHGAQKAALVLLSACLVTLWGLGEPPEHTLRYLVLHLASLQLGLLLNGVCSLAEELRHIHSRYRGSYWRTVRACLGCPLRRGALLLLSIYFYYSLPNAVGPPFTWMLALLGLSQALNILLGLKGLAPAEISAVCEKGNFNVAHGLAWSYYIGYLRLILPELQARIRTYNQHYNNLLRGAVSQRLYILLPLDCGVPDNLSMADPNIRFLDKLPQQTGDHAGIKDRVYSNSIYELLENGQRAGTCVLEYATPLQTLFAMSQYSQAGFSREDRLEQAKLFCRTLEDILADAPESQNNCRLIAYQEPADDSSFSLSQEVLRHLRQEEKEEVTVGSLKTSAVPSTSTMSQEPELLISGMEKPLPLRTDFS
UniProt P07355: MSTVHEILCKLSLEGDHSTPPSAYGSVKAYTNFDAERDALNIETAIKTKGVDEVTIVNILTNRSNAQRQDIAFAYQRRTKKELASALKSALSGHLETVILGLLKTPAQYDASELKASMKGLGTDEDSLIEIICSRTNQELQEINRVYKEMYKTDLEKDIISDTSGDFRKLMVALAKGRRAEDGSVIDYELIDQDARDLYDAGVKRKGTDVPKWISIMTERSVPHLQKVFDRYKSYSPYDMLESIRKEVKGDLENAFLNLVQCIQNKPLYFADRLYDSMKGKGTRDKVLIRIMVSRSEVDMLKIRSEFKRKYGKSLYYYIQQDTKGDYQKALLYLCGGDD

Key:
Experiment in all cases: co-IP
Flag-IRF3 = molecular target: T1, Flag-IRF3 (UniProt Q14653)
T1 sequence: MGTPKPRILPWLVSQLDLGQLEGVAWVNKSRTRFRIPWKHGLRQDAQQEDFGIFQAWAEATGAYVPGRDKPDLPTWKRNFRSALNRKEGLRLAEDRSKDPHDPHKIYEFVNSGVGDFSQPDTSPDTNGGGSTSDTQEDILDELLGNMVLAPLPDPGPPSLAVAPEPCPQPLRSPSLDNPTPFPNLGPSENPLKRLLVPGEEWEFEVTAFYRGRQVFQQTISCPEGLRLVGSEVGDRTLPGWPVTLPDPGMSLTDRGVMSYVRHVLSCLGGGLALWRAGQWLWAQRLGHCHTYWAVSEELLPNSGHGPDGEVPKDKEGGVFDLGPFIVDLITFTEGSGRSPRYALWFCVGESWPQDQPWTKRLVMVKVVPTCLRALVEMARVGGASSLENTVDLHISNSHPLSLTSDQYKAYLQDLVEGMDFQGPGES

Flag-IRF3-D1 (1-382 aa) = molecular target: T2, Flag-IRF3-D1 (1-382 aa) (UniProt Q14653)
T2 sequence: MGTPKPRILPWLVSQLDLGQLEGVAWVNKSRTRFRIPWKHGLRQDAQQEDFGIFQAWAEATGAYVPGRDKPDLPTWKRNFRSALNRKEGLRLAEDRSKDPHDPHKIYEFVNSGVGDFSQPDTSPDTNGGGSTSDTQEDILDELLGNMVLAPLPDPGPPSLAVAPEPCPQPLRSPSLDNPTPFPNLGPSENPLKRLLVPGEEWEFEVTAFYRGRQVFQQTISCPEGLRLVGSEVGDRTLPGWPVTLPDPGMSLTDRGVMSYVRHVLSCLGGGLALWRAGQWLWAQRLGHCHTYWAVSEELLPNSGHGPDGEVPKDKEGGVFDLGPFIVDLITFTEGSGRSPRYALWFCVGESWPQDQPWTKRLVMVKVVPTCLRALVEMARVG

Flag-IRF3-D2 (1-357 aa) = molecular target: T3, Flag-IRF3-D2 (1-357 aa) (UniProt Q14653)
T3 sequence: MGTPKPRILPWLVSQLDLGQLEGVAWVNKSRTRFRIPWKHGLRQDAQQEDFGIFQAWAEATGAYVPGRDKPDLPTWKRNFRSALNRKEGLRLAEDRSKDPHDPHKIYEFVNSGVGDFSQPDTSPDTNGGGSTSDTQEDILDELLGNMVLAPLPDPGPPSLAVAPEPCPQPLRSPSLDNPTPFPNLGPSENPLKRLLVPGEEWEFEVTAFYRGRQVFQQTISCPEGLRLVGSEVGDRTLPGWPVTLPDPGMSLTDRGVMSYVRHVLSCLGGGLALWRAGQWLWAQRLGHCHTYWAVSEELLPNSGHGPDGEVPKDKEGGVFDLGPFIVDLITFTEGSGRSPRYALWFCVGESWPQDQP

Flag-IRF3-D3 (1-140 aa) = molecular target: T4, Flag-IRF3-D3 (1-140 aa) (UniProt Q14653)
T4 sequence: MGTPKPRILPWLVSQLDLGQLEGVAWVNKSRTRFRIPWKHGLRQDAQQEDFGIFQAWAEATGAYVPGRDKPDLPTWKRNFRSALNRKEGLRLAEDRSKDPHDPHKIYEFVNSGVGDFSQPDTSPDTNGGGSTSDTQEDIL

[1] = molecular target: T5, Flag-IRF3-D4 (141-427 aa) (UniProt Q14653)
T5 sequence: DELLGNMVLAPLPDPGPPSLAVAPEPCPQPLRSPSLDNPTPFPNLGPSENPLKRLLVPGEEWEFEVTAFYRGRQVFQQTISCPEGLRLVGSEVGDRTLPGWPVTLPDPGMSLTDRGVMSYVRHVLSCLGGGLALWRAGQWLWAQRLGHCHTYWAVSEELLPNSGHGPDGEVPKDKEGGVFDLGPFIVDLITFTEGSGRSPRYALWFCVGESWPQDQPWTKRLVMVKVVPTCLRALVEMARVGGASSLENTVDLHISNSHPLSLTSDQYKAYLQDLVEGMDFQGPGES

[2] = molecular target: T6, Flag-IRF3-D5 (201-427 aa) (UniProt Q14653)
T6 sequence: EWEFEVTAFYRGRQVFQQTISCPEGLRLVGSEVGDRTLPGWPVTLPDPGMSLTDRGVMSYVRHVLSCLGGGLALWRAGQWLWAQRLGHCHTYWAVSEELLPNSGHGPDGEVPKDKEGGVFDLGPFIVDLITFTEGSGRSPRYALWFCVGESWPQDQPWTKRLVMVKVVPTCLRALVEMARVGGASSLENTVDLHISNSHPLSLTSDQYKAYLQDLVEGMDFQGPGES

Flag-MAVS = Flag-MAVS (UniProt Q7Z434)
Flag-MDA5 = molecular target: T7, Flag-MDA5 (UniProt Q9BYX4)
T7 sequence: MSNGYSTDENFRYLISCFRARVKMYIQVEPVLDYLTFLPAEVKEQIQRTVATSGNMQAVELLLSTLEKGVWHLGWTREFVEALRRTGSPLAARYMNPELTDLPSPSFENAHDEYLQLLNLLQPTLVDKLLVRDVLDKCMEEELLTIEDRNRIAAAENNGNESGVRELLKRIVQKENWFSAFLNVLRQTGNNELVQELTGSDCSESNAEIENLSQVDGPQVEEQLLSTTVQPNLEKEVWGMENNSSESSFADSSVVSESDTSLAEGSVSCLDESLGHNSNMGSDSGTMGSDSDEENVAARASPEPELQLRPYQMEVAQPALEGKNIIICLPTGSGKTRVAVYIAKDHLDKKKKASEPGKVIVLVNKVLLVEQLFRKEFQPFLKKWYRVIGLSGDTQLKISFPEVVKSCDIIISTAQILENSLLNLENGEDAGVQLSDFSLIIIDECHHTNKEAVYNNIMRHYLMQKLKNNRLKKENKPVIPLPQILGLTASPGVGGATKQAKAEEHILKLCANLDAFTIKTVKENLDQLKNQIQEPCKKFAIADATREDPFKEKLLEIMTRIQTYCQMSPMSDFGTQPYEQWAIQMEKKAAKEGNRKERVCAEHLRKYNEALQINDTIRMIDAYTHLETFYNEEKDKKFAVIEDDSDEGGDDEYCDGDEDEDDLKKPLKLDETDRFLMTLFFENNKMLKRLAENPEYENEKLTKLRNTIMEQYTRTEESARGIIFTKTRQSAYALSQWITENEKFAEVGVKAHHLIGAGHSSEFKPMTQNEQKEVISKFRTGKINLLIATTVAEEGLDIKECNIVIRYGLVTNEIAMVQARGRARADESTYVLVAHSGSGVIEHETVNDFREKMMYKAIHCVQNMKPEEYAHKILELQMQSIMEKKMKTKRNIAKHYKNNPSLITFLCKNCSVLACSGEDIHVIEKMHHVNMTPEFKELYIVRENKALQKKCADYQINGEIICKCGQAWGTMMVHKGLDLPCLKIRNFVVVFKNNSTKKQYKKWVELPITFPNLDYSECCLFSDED

Flag-STING = Flag-STING (UniProt Q86WV6)

For “HA-ANXA2-D2 (1-174 aa) (from UniProt P07355 1-174) (domain or fragment)”, the binding (Flag-IRF3) was “binds”.
In the case of “HA-ANXA2-D4 (50-340 aa) (from UniProt P07355 50-339) (domain or fragment)”, the binding (Flag-IRF3) is reported as “binds”.
In the case of “HA-ANXA2-D6 (207-340 aa) (from UniProt P07355 207-339) (domain or fragment)”, the binding (Flag-IRF3) is reported as “binds”.
In the case of “HA-ANXA2-D5 (122-340 aa) (from UniProt P07355 122-339) (domain or fragment)”, the binding (Flag-IRF3) is reported as “binds”.
“HA-tagged Annexin A2 (HA-ANXA2) (from UniProt P07355 1-339)” was tested, and the binding (Flag-IRF3) was “binds”, the binding (Flag-IRF3-D1 (1-382 aa)) was “binds” and the binding (Flag-IRF3-D2 (1-357 aa)) was “binds”. For the same substance, the binding (Flag-IRF3-D3 (1-140 aa)) was “no binding”, the binding [1] was “binds” and the binding [2] was “no binding”. The binding (Flag-MAVS) was “binds”, the binding (Flag-MDA5) was “binds” and the binding (Flag-STING) was “binds”.
“HA-ANXA2-D3 (1-259 aa) (from UniProt P07355 1-259) (domain or fragment)” was tested, and the binding (Flag-IRF3) was “binds”.
“HA-ANXA2-D1 (1-102 aa) (from UniProt P07355 1-102) (domain or fragment)” was tested, and the binding (Flag-IRF3) was “no binding”.
